PMC9151520 (Archives of Toxicology, 2022)
Where “and” joins values, the source holds several entries; their conditions need not be identical. Equal values may be shown once. Where a name gives a salt, the structure may show the parent alone. Read-outs that look alike come from different tables or passages of the source.

Legend:
[1] = system: p53 signaling (p53RE-bla HCT-116 cells); assay: cells; assay type: cell-based; conditions: Homo sapiens
[2] = system: p53RE-bla HCT-116 cells
[3] = system: p53RE-bla HCT-116 cells; assay: cells; conditions: Homo sapiens

CSc1ccc2c(c1)N(CCC1CCCCN1C)c1ccccc1S2 (stereo not drawn) [Thioridazine hydrochloride]
EC50 ([1]; HCT-116, read-out: EC50, p53 activation, cherry pick confirmation): 50 µM
EC50 ([1]; HCT-116, read-out: EC50, p53 activation, primary screening): 51.1 µM
EC50 ([2]; read-out: EC50, viability, cherry pick confirmation): 37.6 µM and 40.6 µM
EC50 ([2]; read-out: EC50, viability, primary screening): 47.6 µM and 41.8 µM
EC50 ([3]; HCT-116, read-out: EC50, viability, cherry pick confirmation): 37 µM
EC50 ([3]; HCT-116, read-out: EC50, viability, primary screening): 38.9 µM
